Results taken from PubChem BioAssay AID449 (The Scripps Research Institute Molecular Screening Center, 2006).
This is one part of the list. The main result of the screen is listed elsewhere. These columns were measured beside it and carry no call. The list favours compounds with an active or inconclusive main result.

By UniProt entry, the sequences of proteins in these tests, tags left out.
UniProt P21453, whole entry, looked up: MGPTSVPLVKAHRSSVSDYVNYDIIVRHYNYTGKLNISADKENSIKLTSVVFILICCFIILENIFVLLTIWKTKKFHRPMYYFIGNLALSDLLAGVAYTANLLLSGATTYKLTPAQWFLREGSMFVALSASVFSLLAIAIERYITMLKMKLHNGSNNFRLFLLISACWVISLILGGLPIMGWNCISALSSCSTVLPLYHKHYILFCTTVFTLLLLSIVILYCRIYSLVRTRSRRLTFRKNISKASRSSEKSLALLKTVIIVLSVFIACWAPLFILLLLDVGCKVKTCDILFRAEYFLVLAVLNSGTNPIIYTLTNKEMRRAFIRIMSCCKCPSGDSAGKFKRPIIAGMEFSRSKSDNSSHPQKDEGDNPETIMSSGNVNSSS

Biological target: Sphingosine 1-phosphate receptor 1 (Homo sapiens) (UniProt P21453)
Assay: activation or potentiation of human S1P1 signaling – cell-based, primary and confirmation screens, CRE-bla reporter, primary screen (AID 449);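 also: forskolin at 4 µM as EC80 and the EC20 agonist is SEW2871; 100% = SEW2871 at its EC100 plus forskolin at EC80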
Settings: S1P1 CRE-bla cells, forskolin, beta-lactamase FRET, potentiator mode; measured here: confirmation screen, triplicate average; at 9.5 µM; stronger effect = higher value; 100% = saturating reference agonist, 0% = basal; S1P1 agonist co-added at EC20, 2 nM

| Structure (SMILES) | activation |
| --- | --- |
| COc1ccc(-c2nc(-c3ccc(Br)o3)no2)cc1OC | 87.7% |
| Cc1nnc(SCC(=O)N2CCC(c3noc4ccc(F)cc34)CC2)s1 | 70.4% |
| Clc1ccc(OCc2nc(-c3ccncc3)no2)c(Br)c1 | 81.7% |
| FC(F)(F)c1ccc(N2CCN(c3cc(-c4ccccc4)nc4ncnn34)CC2)nc1 | 118% |
| Cn1nc(CC(=O)Nc2ccc(N3CCN(C(=O)OC(C)(C)C)CC3)cc2)c2ccccc2c1=O | 55.4% |
| COc1ccc(N=c2scc(-c3ccc(S(=O)(=O)N4CCOCC4)cc3)n2CCCO)cc1 | 63.7% |
| CCOc1ccc(-c2noc(-c3ccncc3)n2)cc1OCC | 102% |
| N#Cc1nc(COc2ccc(Cl)cc2Cl)oc1N1CCN(c2ccccc2)CC1 | 76% |
| CCOc1ccc(-c2nnc(-c3cccnc3)o2)cc1OCC | 84.6% |
| Cc1nc2ccc3nc(NC(=O)C4COc5ccccc5O4)sc3c2s1 (stereo not given) | 58.9% |
| CCNc1nc2c(c(=O)n(C)c(=O)n2C)n1Cc1ccc(Cl)cc1 | 65.2% |
| CCOc1ccc(-c2nc(-c3ccccc3)no2)cc1OCC | 105% |
| O=C(Nc1ccc(N2CCCC2)c(Cl)c1)c1ccc(Br)o1 | 85.2% |
| O=C(Nc1nc2c(s1)CCCC2)c1cc2n(n1)C(C(F)(F)F)CC(C1CC1)N2 (stereo not given) | 100% |
| O=C1C2C3C=CC(CO)(O3)C2C(=O)N1c1ccccc1-c1ccccc1 (stereo not given) | 85% |
| CCOc1ccccc1OCCCCCc1c(C)n[nH]c1C | 94.3% |
| Fc1ccc(COc2ccc(/C=N/n3cnnc3)cc2)cc1 | 77.4% |
| N#Cc1nc(-c2ccc(OCc3ccccc3)cc2)oc1NCc1cccnc1 | 109% |
| Cc1ccnc(SCC(=O)Nc2sc3c(c2C#N)CCCC3)n1 | 113% |
| C/C(N)=C(/C#N)C(=O)CSc1nnc(SCc2ccc(Cl)cc2)s1 | 64.7% |
| O=C(Nc1c(F)cc(F)cc1Br)c1cc(-c2ccc(O)cc2)on1 | 107% |
| CCCN(C(=O)c1cccs1)c1nnc(-c2ccncc2)s1 | 77.5% |
| Cc1cc(C(=O)CSc2nnc(-c3ccco3)o2)c(C)n1-c1ccc2c(c1)OCCO2 | 66.1% |
| CCCOC(=O)c1ccc(OCC(O)Cn2c(C)nc3ccccc32)cc1 (stereo not given) | 56.6% |

| Structure (SMILES) | activation |
| --- | --- |
| Cc1ccccc1OCCCCc1c(C)n[nH]c1C | 103% |
| CCOC(=O)c1c(C)[nH]c(C(=O)C(C)OC(=O)c2cccc(OCc3c(C)noc3C)c2)c1C (stereo not given) | 104% |
| O=S(=O)(C/C(=C/CO)S(=O)(=O)c1ccccc1)c1ccccc1 | 106% |
| Cc1oc2cc(O)cc(O)c2c(=O)c1-c1ccc2c(c1)OCCCO2 | 86.6% |
| CC(=O)c1c(C)[nH]c(C(=O)OCCCCN2C(=O)c3ccccc3C2=O)c1C | 96.9% |
| Clc1ccc(-c2nc3nc4ccccc4nc3n2Cc2ccco2)cc1 | 72.3% |
| CCOC(=O)c1sc2nc(NC(=O)C3CCCCC3)sc2c1C | 72.3% |
| Cc1ccc2c(c1)[nH]c1c(N3CCN(Cc4ccccc4)CC3)ncnc12 | 108% |
| COc1ccc(-c2nc(-c3cccc(C(F)(F)F)c3)no2)cc1OC | 89.2% |
| O=C(Nc1ccc(OC(F)F)c(Cl)c1)Nc1ccc2c(c1)OCO2 | 83.3% |
| COc1ccc(CCNc2ncnc3c2oc2ccccc23)cc1OC | 119% |
| COC(=O)c1cc(CSc2nnc(-c3ccccc3)c(-c3ccccc3)n2)oc1C | 97% |
| NC(=O)c1ccc(OCC(F)(F)C(F)(F)C(F)(F)C(F)(F)C(F)(F)C(F)F)cc1 | 72.1% |
| COc1ccc(-c2nc(-c3ccc(NC(=O)c4ccncc4)cc3)no2)cc1OC | 113% |
| CCCc1cc(C(=O)Nc2sc(C)c(CC)c2C#N)no1 | 65.4% |
| COc1ccc(-c2nc3cc(NC(=O)Cc4ccc(OC)c(OC)c4)ccc3o2)cc1 | 89.6% |
| COc1ccc(-c2cc(C(=O)NC3CCCC3)no2)cc1OC | 70.3% |
| CC(Oc1ccccc1Br)C(=O)N1CCc2ccccc21 (stereo not given) | 63.4% |
| O=C(CSc1ncnc2c1oc1ccccc12)N1CCCc2ccccc21 | 100% |
| CCCn1c(NC(=O)c2cccc(S(=O)(=O)N3CCCC3)c2)nc2ccccc21 | 96.7% |
| CCCC(=O)N1CCN(c2ccc(NC(=O)c3cc4ccccc4o3)cc2Cl)CC1 | 75.7% |
| COC(=O)c1ccc2c(=O)n(C3CCCCC3)c(SCC#N)nc2c1 | 96.8% |
| O=S(=O)(NCc1ccncc1)c1ccc(Br)s1 | 106% |
| CC1=CC(C)(C)Nc2ccc(OC(=O)c3cccnc3)cc21 | 62.2% |

| Structure (SMILES) | activation |
| --- | --- |
| O=C(Nc1ccc(N2CCOCC2)c(Cl)c1)c1cccc(F)c1 | 92.6% |
| Cn1nc(C(C)(C)C)cc1C(=O)NCc1ccc(N2CCCC2=O)cc1 | 90.1% |
| COCCn1c(C)cc(C(=O)CSc2nc3ccccc3o2)c1C | 57.3% |
| CC(=O)Nc1ccccc1OCC(=O)c1cc(C)n(Cc2cccs2)c1C | 115% |
| Nc1ccc(N2CCOCC2)c(Cl)c1 | 92.1% |
| CN(C)c1oc(-c2ccc(OCc3ccccc3)cc2)nc1C#N | 82.8% |
| O=C(Nc1ccc(Oc2ccccc2)cc1)c1cnc2n(c1=O)CCS2 | 63.5% |
| COc1cccc(-c2cc(C(=O)Nc3ccccc3SC)no2)c1 | 87.1% |
| CCC(C)c1ccc2oc(-c3ccc(NC(=O)Cn4cnc5c(=O)n(C)c(=O)n(C)c54)cc3)nc2c1 (stereo not given) | 114% |
| c1ccc2c(c1)CCN(c1ncnc3c1[nH]c1ccccc13)C2 | 116% |
| CC(=O)c1ccc(N2CCN(c3ccc(C(F)(F)F)cn3)CC2)cc1 | 58.5% |
| Cc1occc1C(=O)N1CCN(c2ccc(Cl)c(Cl)c2)CC1 | 81.4% |
| CCCC(=O)Nc1ccc(-c2nc3cc(C)ccc3o2)cc1 | 54.8% |
| Cc1cccc(-c2nc(CSCC(=O)N3CCN(Cc4ccc5c(c4)OCO5)CC3)c(C)o2)c1 | 62.4% |
| Nc1nonc1C(=O)NCCNCc1cc(Br)ccc1OCc1ccc(F)cc1 | 109% |
| CCOC(=O)N1CCC(NC(=O)C2CCCN(Cc3nc(-c4cccc(Cl)c4)oc3C)C2)CC1 (stereo not given) | 69% |
| c1ccc2c(c1)oc1c(NCc3ccc4c(c3)OCO4)ncnc12 | 79.2% |
| O=C(Nc1ccc(O)cc1)c1cc2n(n1)C(C(F)(F)F)CC(c1ccco1)N2 (stereo not given) | 82.7% |
| c1ccc(N2CCN(Cc3ccnc4ccccc34)CC2)cc1 | 96.3% |
| CC(C)COC(=O)NCCOC(=O)Nc1cccc(Cl)c1 | 76.6% |
| c1ccc(CSc2nnc(-c3c[nH]c4ccccc34)o2)cc1 | 99.4% |
| CCn1c(SCC(=O)Nc2nc3ccc(C)cc3s2)nc2c(c1=O)SC(C)C2 (stereo not given) | 68.7% |

Molecules listed so far containing a CF3 group, in the order listed:

| Structure (SMILES) | activation |
| --- | --- |
| FC(F)(F)c1ccc(N2CCN(c3cc(-c4ccccc4)nc4ncnn34)CC2)nc1 | 118% |
| O=C(Nc1nc2c(s1)CCCC2)c1cc2n(n1)C(C(F)(F)F)CC(C1CC1)N2 (stereo not given) | 100% |
| COc1ccc(-c2nc(-c3cccc(C(F)(F)F)c3)no2)cc1OC | 89.2% |
| CC(=O)c1ccc(N2CCN(c3ccc(C(F)(F)F)cn3)CC2)cc1 | 58.5% |
| O=C(Nc1ccc(O)cc1)c1cc2n(n1)C(C(F)(F)F)CC(c1ccco1)N2 (stereo not given) | 82.7% |
